In the supplement of paper PMC11438910:
This is one part of the list. Most of these values are background signal.

How the values were obtained:
Test in all cases: fluorescence intensity of antibody binding to polysaccharide-coupled beads; higher = stronger binding
[1] = target: pneumococcal polysaccharide Pn10B
[2] = target: pneumococcal polysaccharide Pn10C
[3] = target: pneumococcal polysaccharide Pn10F
[4] = target: pneumococcal polysaccharide Pn11A
[5] = target: pneumococcal polysaccharide Pn11B
[6] = target: pneumococcal polysaccharide Pn11C
[7] = target: pneumococcal polysaccharide Pn11D
[8] = target: pneumococcal polysaccharide Pn11F
[9] = target: pneumococcal polysaccharide Pn12A
[10] = target: pneumococcal polysaccharide Pn12B
[11] = target: pneumococcal polysaccharide Pn12F
[12] = target: pneumococcal polysaccharide Pn13
[13] = target: pneumococcal polysaccharide Pn14
[14] = target: pneumococcal polysaccharide Pn15A
[15] = target: pneumococcal polysaccharide Pn15B
[16] = target: pneumococcal polysaccharide Pn15C
[17] = target: pneumococcal polysaccharide Pn15F
[18] = target: pneumococcal polysaccharide Pn16A
[19] = target: pneumococcal polysaccharide Pn16F
[20] = target: pneumococcal polysaccharide Pn17A
[21] = target: pneumococcal polysaccharide Pn17F
[22] = target: pneumococcal polysaccharide Pn18A
[23] = target: pneumococcal polysaccharide Pn18B
[24] = target: pneumococcal polysaccharide Pn18C
[25] = target: pneumococcal polysaccharide Pn18F
[26] = target: pneumococcal polysaccharide Pn19A
[27] = antibody concentration 2.8593 ng/mL
[28] = antibody concentration 15.2894 ng/mL
[29] = antibody concentration 81.7561 ng/mL
[30] = antibody concentration 437.17 ng/mL
[31] = antibody concentration 2337.65 ng/mL
[32] = antibody concentration 0.1 ng/mL
[33] = antibody concentration 0.534724 ng/mL

B1: 3S41.1 (protein)
chain 1: EVQLVESGGGLVQPGGSLRLSCATSGFTFRNYWMYWFRQAPGKGLDWVSSISDSSSNTFYSDSVKGRFTISRDNAKNTLYLQMNSLRAEDTAVYYCARRPIAAATGVYWYFDLWGPGTPITVSS
chain 2: EIVMTQSPATLSLSPGERATLSCRASQNIGSNLAWYQQKPGRAPKLLIYDASSRATGIPDRFSASGSGTDFTLTISSLEPEDVGVYYCQQYNNWKIFGPGTKLEIK
[1]; [27]
  fluorescence intensity: 25.2 MFI
[1]; [28]
  fluorescence intensity: 24 MFI
[1]; [29]
  fluorescence intensity: 25.5 MFI
[1]; [30]
  fluorescence intensity: 24.8 MFI
[1]; [31]
  fluorescence intensity: 24.8 MFI
[2]; [32]
  fluorescence intensity: 17 MFI
[2]; [33]
  fluorescence intensity: 16.5 MFI
[2]; [27]
  fluorescence intensity: 16 MFI
[2]; [28]
  fluorescence intensity: 16 MFI
[2]; [29]
  fluorescence intensity: 17 MFI
[2]; [30]
  fluorescence intensity: 14.5 MFI
[2]; [31]
  fluorescence intensity: 19 MFI
[3]; [32]
  fluorescence intensity: 19 MFI
[3]; [33]
  fluorescence intensity: 20.5 MFI
[3]; [27]
  fluorescence intensity: 20.2 MFI
[3]; [28]
  fluorescence intensity: 19.2 MFI
[3]; [29]
  fluorescence intensity: 20 MFI
[3]; [30]
  fluorescence intensity: 20 MFI
[3]; [31]
  fluorescence intensity: 21.5 MFI
[4]; [32]
  fluorescence intensity: 28.5 MFI
[4]; [33]
  fluorescence intensity: 30.5 MFI
[4]; [27]
  fluorescence intensity: 30.2 MFI
[4]; [28]
  fluorescence intensity: 33 MFI
[4]; [29]
  fluorescence intensity: 30 MFI
[4]; [30]
  fluorescence intensity: 32 MFI
[4]; [31]
  fluorescence intensity: 32 MFI
[5]; [32]
  fluorescence intensity: 26.5 MFI
[5]; [33]
  fluorescence intensity: 26.5 MFI
[5]; [27]
  fluorescence intensity: 27.8 MFI
[5]; [28]
  fluorescence intensity: 25.8 MFI
[5]; [29]
  fluorescence intensity: 26.2 MFI
[5]; [30]
  fluorescence intensity: 26.5 MFI
[5]; [31]
  fluorescence intensity: 31.5 MFI
[6]; [32]
  fluorescence intensity: 22 MFI
[6]; [33]
  fluorescence intensity: 19.5 MFI
[6]; [27]
  fluorescence intensity: 22 MFI
[6]; [28]
  fluorescence intensity: 23 MFI
[6]; [29]
  fluorescence intensity: 23 MFI
[6]; [30]
  fluorescence intensity: 23.5 MFI
[6]; [31]
  fluorescence intensity: 30 MFI
[7]; [32]
  fluorescence intensity: 22 MFI
[7]; [33]
  fluorescence intensity: 22.2 MFI
[7]; [27]
  fluorescence intensity: 23 MFI
[7]; [28]
  fluorescence intensity: 22.5 MFI
[7]; [29]
  fluorescence intensity: 24 MFI
[7]; [30]
  fluorescence intensity: 23.5 MFI
[7]; [31]
  fluorescence intensity: 26 MFI
[8]; [32]
  fluorescence intensity: 14.8 MFI
[8]; [33]
  fluorescence intensity: 12.8 MFI
[8]; [27]
  fluorescence intensity: 13.8 MFI
[8]; [28]
  fluorescence intensity: 15.5 MFI
[8]; [29]
  fluorescence intensity: 14 MFI
[8]; [30]
  fluorescence intensity: 15 MFI
[8]; [31]
  fluorescence intensity: 17 MFI
[9]; [32]
  fluorescence intensity: 15 MFI
[9]; [33]
  fluorescence intensity: 13.5 MFI
[9]; [27]
  fluorescence intensity: 15.5 MFI
[9]; [28]
  fluorescence intensity: 17.5 MFI
[9]; [29]
  fluorescence intensity: 14.2 MFI
[9]; [30]
  fluorescence intensity: 15.5 MFI
[9]; [31]
  fluorescence intensity: 19 MFI
[10]; [32]
  fluorescence intensity: 16.5 MFI
[10]; [33]
  fluorescence intensity: 16 MFI
[10]; [27]
  fluorescence intensity: 16 MFI
[10]; [28]
  fluorescence intensity: 15.5 MFI
[10]; [29]
  fluorescence intensity: 15.2 MFI
[10]; [30]
  fluorescence intensity: 16.5 MFI
[10]; [31]
  fluorescence intensity: 18 MFI
[11]; [32]
  fluorescence intensity: 19 MFI
[11]; [33]
  fluorescence intensity: 19 MFI
[11]; [27]
  fluorescence intensity: 17 MFI
[11]; [28]
  fluorescence intensity: 19 MFI
[11]; [29]
  fluorescence intensity: 19.8 MFI
[11]; [30]
  fluorescence intensity: 19.5 MFI
[11]; [31]
  fluorescence intensity: 21.5 MFI
[12]; [32]
  fluorescence intensity: 18.5 MFI
[12]; [33]
  fluorescence intensity: 18.5 MFI
[12]; [27]
  fluorescence intensity: 20.5 MFI
[12]; [28]
  fluorescence intensity: 19.5 MFI
[12]; [29]
  fluorescence intensity: 18.5 MFI
[12]; [30]
  fluorescence intensity: 19 MFI
[12]; [31]
  fluorescence intensity: 20 MFI
[13]; [32]
  fluorescence intensity: 15.8 MFI
[13]; [33]
  fluorescence intensity: 15 MFI
[13]; [27]
  fluorescence intensity: 15 MFI
[13]; [28]
  fluorescence intensity: 15 MFI
[13]; [29]
  fluorescence intensity: 15.5 MFI
[13]; [30]
  fluorescence intensity: 17 MFI
[13]; [31]
  fluorescence intensity: 23.5 MFI
[14]; [32]
  fluorescence intensity: 13.8 MFI
[14]; [33]
  fluorescence intensity: 12.5 MFI
[14]; [27]
  fluorescence intensity: 12 MFI
[14]; [28]
  fluorescence intensity: 12.5 MFI
[14]; [29]
  fluorescence intensity: 14 MFI
[14]; [30]
  fluorescence intensity: 12.5 MFI
[14]; [31]
  fluorescence intensity: 14 MFI
[15]; [32]
  fluorescence intensity: 20 MFI
[15]; [33]
  fluorescence intensity: 19.5 MFI
[15]; [27]
  fluorescence intensity: 18.8 MFI
[15]; [28]
  fluorescence intensity: 18.8 MFI
[15]; [29]
  fluorescence intensity: 20.5 MFI
[15]; [30]
  fluorescence intensity: 22 MFI
[15]; [31]
  fluorescence intensity: 24.5 MFI
[16]; [32]
  fluorescence intensity: 16.5 MFI
[16]; [33]
  fluorescence intensity: 17.5 MFI
[16]; [27]
  fluorescence intensity: 15 MFI
[16]; [28]
  fluorescence intensity: 17.8 MFI
[16]; [29]
  fluorescence intensity: 19.5 MFI
[16]; [30]
  fluorescence intensity: 15.5 MFI
[16]; [31]
  fluorescence intensity: 20 MFI
[17]; [32]
  fluorescence intensity: 17.5 MFI
[17]; [33]
  fluorescence intensity: 18 MFI
[17]; [27]
  fluorescence intensity: 16.5 MFI
[17]; [28]
  fluorescence intensity: 17 MFI
[17]; [29]
  fluorescence intensity: 18 MFI
[17]; [30]
  fluorescence intensity: 18.5 MFI
[17]; [31]
  fluorescence intensity: 18.8 MFI
[18]; [32]
  fluorescence intensity: 13.2 MFI
[18]; [33]
  fluorescence intensity: 13.5 MFI
[18]; [27]
  fluorescence intensity: 13 MFI
[18]; [28]
  fluorescence intensity: 15 MFI
[18]; [29]
  fluorescence intensity: 14.5 MFI
[18]; [30]
  fluorescence intensity: 13 MFI
[18]; [31]
  fluorescence intensity: 16.5 MFI
[19]; [32]
  fluorescence intensity: 24.2 MFI
[19]; [33]
  fluorescence intensity: 24.5 MFI
[19]; [27]
  fluorescence intensity: 24.8 MFI
[19]; [28]
  fluorescence intensity: 25.5 MFI
[19]; [29]
  fluorescence intensity: 23.5 MFI
[19]; [30]
  fluorescence intensity: 26 MFI
[19]; [31]
  fluorescence intensity: 27.5 MFI
[20]; [32]
  fluorescence intensity: 22 MFI
[20]; [33]
  fluorescence intensity: 22 MFI
[20]; [27]
  fluorescence intensity: 21 MFI
[20]; [28]
  fluorescence intensity: 21 MFI
[20]; [29]
  fluorescence intensity: 21.5 MFI
[20]; [30]
  fluorescence intensity: 21 MFI
[20]; [31]
  fluorescence intensity: 23 MFI
[21]; [32]
  fluorescence intensity: 26 MFI
[21]; [33]
  fluorescence intensity: 26 MFI
[21]; [27]
  fluorescence intensity: 26 MFI
[21]; [28]
  fluorescence intensity: 26.5 MFI
[21]; [29]
  fluorescence intensity: 26.5 MFI
[21]; [30]
  fluorescence intensity: 26.5 MFI
[21]; [31]
  fluorescence intensity: 28 MFI
[22]; [32]
  fluorescence intensity: 23.5 MFI
[22]; [33]
  fluorescence intensity: 23 MFI
[22]; [27]
  fluorescence intensity: 24 MFI
[22]; [28]
  fluorescence intensity: 21.8 MFI
[22]; [29]
  fluorescence intensity: 23.5 MFI
[22]; [30]
  fluorescence intensity: 23.5 MFI
[22]; [31]
  fluorescence intensity: 25 MFI
[23]; [32]
  fluorescence intensity: 29.2 MFI
[23]; [33]
  fluorescence intensity: 30.5 MFI
[23]; [27]
  fluorescence intensity: 29.5 MFI
[23]; [28]
  fluorescence intensity: 32 MFI
[23]; [29]
  fluorescence intensity: 31 MFI
[23]; [30]
  fluorescence intensity: 30.2 MFI
[23]; [31]
  fluorescence intensity: 33 MFI
[24]; [32]
  fluorescence intensity: 18.5 MFI
[24]; [33]
  fluorescence intensity: 19.5 MFI
[24]; [27]
  fluorescence intensity: 17.5 MFI
[24]; [28]
  fluorescence intensity: 18.5 MFI
[24]; [29]
  fluorescence intensity: 19.5 MFI
[24]; [30]
  fluorescence intensity: 20 MFI
[24]; [31]
  fluorescence intensity: 23 MFI
[25]; [32]
  fluorescence intensity: 23.8 MFI
[25]; [33]
  fluorescence intensity: 23.5 MFI
[25]; [27]
  fluorescence intensity: 22.5 MFI
[25]; [28]
  fluorescence intensity: 23 MFI
[25]; [29]
  fluorescence intensity: 23.2 MFI
[25]; [30]
  fluorescence intensity: 24.2 MFI
[25]; [31]
  fluorescence intensity: 28 MFI
[26]; [32]
  fluorescence intensity: 18 MFI
[26]; [33]
  fluorescence intensity: 18 MFI
[26]; [27]
  fluorescence intensity: 18 MFI
[26]; [28]
  fluorescence intensity: 18.2 MFI
[26]; [29]
  fluorescence intensity: 18 MFI
[26]; [30]
  fluorescence intensity: 17 MFI
[26]; [31]
  fluorescence intensity: 21 MFI
